Experimental data reported in article PMC8783446.

Sequences of proteins named here, by UniProt entry; tags and fusion partners are left off.
UniProt Q9JJG0: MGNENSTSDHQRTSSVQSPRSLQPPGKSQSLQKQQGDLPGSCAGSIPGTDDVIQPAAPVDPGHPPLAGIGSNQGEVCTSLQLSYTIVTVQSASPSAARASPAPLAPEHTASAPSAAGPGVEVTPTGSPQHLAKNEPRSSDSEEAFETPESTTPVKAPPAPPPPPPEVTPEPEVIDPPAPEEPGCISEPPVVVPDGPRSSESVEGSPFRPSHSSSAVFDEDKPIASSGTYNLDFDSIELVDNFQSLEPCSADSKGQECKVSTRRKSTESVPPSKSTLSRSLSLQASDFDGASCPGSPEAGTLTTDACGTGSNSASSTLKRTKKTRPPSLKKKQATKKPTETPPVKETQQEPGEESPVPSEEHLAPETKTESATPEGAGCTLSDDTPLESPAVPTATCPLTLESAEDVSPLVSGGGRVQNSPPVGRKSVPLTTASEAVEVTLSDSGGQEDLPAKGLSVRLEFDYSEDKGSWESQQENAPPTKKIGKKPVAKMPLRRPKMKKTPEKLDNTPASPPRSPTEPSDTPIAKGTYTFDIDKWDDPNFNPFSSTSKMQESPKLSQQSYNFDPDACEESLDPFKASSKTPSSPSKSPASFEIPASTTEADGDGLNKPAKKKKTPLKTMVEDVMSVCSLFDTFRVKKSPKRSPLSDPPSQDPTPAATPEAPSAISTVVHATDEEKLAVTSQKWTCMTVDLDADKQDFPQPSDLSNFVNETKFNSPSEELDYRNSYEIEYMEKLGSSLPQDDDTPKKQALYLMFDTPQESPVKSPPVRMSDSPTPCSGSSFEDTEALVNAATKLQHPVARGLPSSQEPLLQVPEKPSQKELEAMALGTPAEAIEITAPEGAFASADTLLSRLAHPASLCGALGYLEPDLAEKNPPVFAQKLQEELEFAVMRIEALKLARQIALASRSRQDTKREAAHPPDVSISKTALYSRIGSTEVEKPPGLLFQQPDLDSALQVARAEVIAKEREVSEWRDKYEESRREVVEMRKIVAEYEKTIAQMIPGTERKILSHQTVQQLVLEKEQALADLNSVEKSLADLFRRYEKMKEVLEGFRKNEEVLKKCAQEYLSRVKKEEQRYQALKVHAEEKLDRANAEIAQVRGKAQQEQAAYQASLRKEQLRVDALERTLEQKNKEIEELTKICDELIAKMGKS
UniProt P10637: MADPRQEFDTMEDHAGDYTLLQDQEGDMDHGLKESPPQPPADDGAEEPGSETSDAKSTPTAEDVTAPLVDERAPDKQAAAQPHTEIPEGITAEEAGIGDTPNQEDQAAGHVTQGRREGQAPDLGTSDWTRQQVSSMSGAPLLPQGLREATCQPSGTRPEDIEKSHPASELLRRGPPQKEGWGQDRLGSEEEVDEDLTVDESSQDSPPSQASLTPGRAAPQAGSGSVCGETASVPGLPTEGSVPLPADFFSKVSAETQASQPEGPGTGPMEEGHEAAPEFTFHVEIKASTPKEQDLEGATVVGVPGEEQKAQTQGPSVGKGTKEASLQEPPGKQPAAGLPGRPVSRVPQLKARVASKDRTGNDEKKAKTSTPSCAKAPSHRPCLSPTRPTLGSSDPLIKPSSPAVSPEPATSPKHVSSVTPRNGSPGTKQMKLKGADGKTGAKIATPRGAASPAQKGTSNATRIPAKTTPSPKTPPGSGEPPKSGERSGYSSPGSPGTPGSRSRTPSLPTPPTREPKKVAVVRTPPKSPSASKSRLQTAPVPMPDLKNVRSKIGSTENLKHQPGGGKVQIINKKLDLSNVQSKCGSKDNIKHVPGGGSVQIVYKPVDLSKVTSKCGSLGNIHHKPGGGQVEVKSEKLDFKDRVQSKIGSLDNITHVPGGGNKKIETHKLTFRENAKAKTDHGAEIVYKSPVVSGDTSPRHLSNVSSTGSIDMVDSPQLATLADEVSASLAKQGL
UniProt P09405: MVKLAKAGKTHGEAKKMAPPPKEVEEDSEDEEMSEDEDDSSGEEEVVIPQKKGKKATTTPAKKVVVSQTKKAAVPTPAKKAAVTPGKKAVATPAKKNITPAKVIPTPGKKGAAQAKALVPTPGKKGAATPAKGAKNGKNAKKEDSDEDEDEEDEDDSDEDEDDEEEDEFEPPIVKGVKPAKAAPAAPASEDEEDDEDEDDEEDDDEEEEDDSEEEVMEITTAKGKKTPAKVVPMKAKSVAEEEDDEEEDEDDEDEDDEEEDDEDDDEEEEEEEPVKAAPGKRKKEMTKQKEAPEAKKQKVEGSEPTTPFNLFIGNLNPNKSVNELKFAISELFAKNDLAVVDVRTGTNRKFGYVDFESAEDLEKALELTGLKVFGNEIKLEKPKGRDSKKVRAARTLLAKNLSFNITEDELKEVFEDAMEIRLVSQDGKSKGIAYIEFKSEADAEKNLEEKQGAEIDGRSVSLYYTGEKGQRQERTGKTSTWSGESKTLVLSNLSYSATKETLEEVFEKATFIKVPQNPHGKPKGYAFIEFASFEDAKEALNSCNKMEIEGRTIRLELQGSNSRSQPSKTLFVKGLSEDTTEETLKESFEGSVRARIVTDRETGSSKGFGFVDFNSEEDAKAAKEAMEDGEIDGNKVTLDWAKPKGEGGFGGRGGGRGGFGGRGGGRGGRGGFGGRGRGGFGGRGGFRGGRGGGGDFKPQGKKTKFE

T1: γ-sarcoglycan (Sgcg), endogenous in mouse muscle (mouse (endogenous in gastrocnemius muscle)) (UniProt P82348)
T1 sequence: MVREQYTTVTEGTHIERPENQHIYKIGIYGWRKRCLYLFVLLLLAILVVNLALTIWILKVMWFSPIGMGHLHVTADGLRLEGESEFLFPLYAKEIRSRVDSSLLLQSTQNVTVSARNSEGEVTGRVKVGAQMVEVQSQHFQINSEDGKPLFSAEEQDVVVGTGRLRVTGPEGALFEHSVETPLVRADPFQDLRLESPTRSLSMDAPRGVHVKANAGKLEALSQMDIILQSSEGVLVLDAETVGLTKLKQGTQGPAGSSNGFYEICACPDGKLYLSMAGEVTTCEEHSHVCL

T2: γ-sarcoglycan (Sgcg), endogenous in mouse muscle (mouse (endogenous in gastrocnemius muscle)), P82348
T2 chain: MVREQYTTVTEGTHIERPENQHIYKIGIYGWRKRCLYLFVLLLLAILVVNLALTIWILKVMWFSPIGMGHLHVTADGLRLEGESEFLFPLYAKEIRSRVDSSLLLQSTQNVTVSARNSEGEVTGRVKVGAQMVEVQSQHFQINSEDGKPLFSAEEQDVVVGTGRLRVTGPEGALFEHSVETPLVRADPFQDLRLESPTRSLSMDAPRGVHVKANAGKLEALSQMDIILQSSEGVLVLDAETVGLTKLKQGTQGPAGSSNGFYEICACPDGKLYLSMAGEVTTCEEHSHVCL


Key:
Test in all cases: affinity purification with mass spectrometry; anti-Sgcg cross-linked to Protein A Dynabeads; RIPA1 extract (1% IGEPAL CA-630, 0.5% deoxycholate, 0.1% SDS) of the cytoskeleton-associated fraction of mouse gastrocnemius muscle (WT, Svil-/-); controls Sgcg-/- muscle and rabbit IgG; 2 h at 4 °C; LC-MS/MS, triplicates
[1] = biological target: T1, γ-sarcoglycan (Sgcg), endogenous in mouse muscle (mouse (endogenous in gastrocnemius muscle))
[2] = biological target: T2, γ-sarcoglycan (Sgcg), endogenous in …; settings: remark: other sources report otherwise
[3] = biological target: T1, γ-sarcoglycan (Sgcg), endogenous in mouse muscle (mouse (endogenous in gastrocnemius muscle)); remark: listed apart in the source

Row | binding [1] | Molecule | also measured
1 | binds | TACC2 (from UniProt Q9JJG0 1-1149) | –
2 | binds | Mapt (from UniProt P10637 1-733) | –
3 | binds | Ep215 | –
4 | binds | Nucleolin (from UniProt P09405 1-707) | –
5 | binds | eIF4G | –
6 | – | α-sarcoglycan (Sgca), P82350 24-387 (protein) QQTTLHLLVGRVFVHPLEHATFLRLPEHVAVPPTVRLTYHAHLQGHPDLPRWLHYTQRSPYNPGFLYGSPTPEDRGYQVIEVTAYNRDSFDTTRQRLLLLIGDPEGPRLPYQAEFLVRSHDVEEVLPTTPANRFLTALGGLWEPGELQLLNITSALDRGGRVPLPIEGRKEGVYIKVGSATPFSTCLKMVASPDSYARCAQGQPPLLSCYDTLAPHFRVDWCNVSLVDKSVPEPLDEVPTPGDGILEHDPFFCPPTEATDRDFLTDALVTLLVPLLVALLLTLLLAYIMCFRREGRLKRDMATSDIQMFHHCSIHGNTEELRQMAASREVPRPLSTLPMFNVRTGERLPPRVDSAQMPLILDQH | binding [2]: binds
7 | – | β-dystroglycan, Q62165 652-893 (protein) SIVVEWTNNTLPLEPCPKEQIIGLSRRIADENGKPRPAFSNALEPDFKALSIAVTGSGSCRHLQFIPVAPPSPGSSAAPATEVPDRDPEKSSEDDVYLHTVIPAVVVAAILLIAGIIAMICYRKKRKGKLTLEDQATFIKKGVPIIFADELDDSKPPPSSSMPLILQEEKAPLPPPEYPNQSMPETTPLNQDTVGEYTPLRDEDPNAPPYQPPPPFTAPMEGKGSRPKNMTPYRSPPPYVPP | binding [2]: no binding
8 | – | Tensin 2 (protein, UniProt Q8CGB6 1-1400) MKSSGPVERLLRALGRRDSSRATSRPRKAEPHSFREKVFRKKTPVCAVCKVTIDGTGVSCRVCKVATHRKCEAKVTSSCQALPPAELRRSTAPVRRIEHLGSTKSLNHSKQRSTLPRSFSLDPLMERRWDLDLTYVTERILAAAFPARPDEQRHRGHLRELAHVLQSKHRDKYLLFNLSEKRHDLTRLNPKVQDFGWPELHAPPLDKLCSICKAMETWLSADPQHVVVLYCKGSKGKLGVIVSAYMHYSKISAGADQALATLTMRKFCEDKVATELQPSQRRYVSYFSGLLSGSIRMNSSPLFLHYVFVPVLPAFEPNTGFQPFLKIYQSMQLVYTSGVYRIAGPGPQQLCISLEPALLLKGDVMVTCYHKGGQGTDRTLVFRVQFHTCTIHGSRLTFPKDQLDEAWADERFPFQASVEFVFSSSPEKVKGNTPRNDPSVSVDYNTTEPAVRWDSYENFNQHHEDSVDGALAHTRGPLDGSPYAQVQRVPRQTPPAPSPELPPPPMLSVSSDSGHSSTLTTEHTAESPGRPPPTAAERQELDRLLGGCGVASAGRGAGRETAILDDEEQPSVGGGLHLGMYSGHRPGLSRRCSCRQGFREPCGVPNGSYYRPEGTLERRRPPYGGYEGHPQGYAEASVEKRRLCRSLSEGPYPYAPELGKPANGDFGYRPAGYREVVILEDPGVPALCSCPACEEKLALPTAALYGLRLEREAAEGWSSEVGKPLLHPVRPGHPLPLLVPACGHHHAPMPDYGCLKPPKVGEEGHEGCSYAVCSEGRYGHSGYPALVTYGYGGAVPSYCPAYGRAPHSCGSPSEGRGYPSPGAHSPRAGSVSPGSPPYLQPRKLGYEISAEDGRDKYPLSGHLASTGPLASTESPEPSWRDGSSGHSTLPRSPRDPQCSASSELSGPSTPLHTSSPVQGKESNRRQDTTRSPSLAPTQRLSPGEALPSVVQGVAEKTPELLTSSRPEQLDPSPFSQTSAPGSPNGWPQERSPGGHTNSASPRSPVPTTLPGLRHAPWQGPRGTSDSPDGSPLTPVPTQMPWLVGSPEPPQSSPTPAFPLATSYDANGPIQPPLPEKRHLPGSGQQPSPPARSTNQHVTFASPLPDVTQPPEHPLQENQSNVKFVQDTSKFWYKPHLSRDQAIALLKDKDPGAFLIRDSHSFQGAYGLALKVATPPPSAQPWKGDPSEQLVRHFLIETGPKGVKIKGCPTEPYFGSLSALVSQHSISPISLPCCLRIPSKDPLEETPEAPVPTNMSTAADLLRQGAACSVLYLTSVETESLTGPQAVAKASSAALSCSPVPVPAIVHFKVSAQGITLTDNQRKLFFRRHYPVNSITFSSTDPQDRRWTNPDGATSKIFGFVAKKPGSPWENVCHLFAELDPDQPASAIVTFITKVLLGQRK | binding [3]: binds
9 | – | Myotilin (protein, UniProt Q9JIF9 1-496) MFNYERPKHFIQPQNPCGSRLQPPGPEVSGFPSQTKQSSIVIQPRQCTEQRFSASSTVSSHITVSSSAYPAPQQLAGPNPGQKVTATYNQSPASFLSSILPSQPDYCNSKIPSTVDSNYQQSSVNQPVNAMSSQAANARPTPKTPDHEIQGSKEALIQDLERKLKCKDTLLHNGNQRLTYEEKMARRLLGPQNAAAVFQAQNSDVQDSPQHNPEQARLHVPTSQVRSRSSSRAEANDQDAIQEKFYPPRFIQVPENMSIEEGRFCRMDFKVSGLPAPDVSWYLNGRPVQSDELHKMIVSEKGFHSLIFEVVRASDAGPYACVARNRAGEATFTVQLDVLAKEHKRAPMFIFKPQSKKVFEGETVKLECQISAIPPPKLFWKRNNEMVQFNTDRISLYHDNAGRVTLLIKDVNKKDAGWYTVSAVNEAGVTTCNTRLDVTARPIQTLPAPKQLRVRPTFSKYLALNGRGLDVKQAFNPEGEFQRLAAQSGLYESEEL | binding [3]: binds

Where two headings read alike, the source gives them in different places. No constants are given. Whether binding was seen depends on the method and setting. Binding seen in cells or lysates may run through a third protein. Here binding means that the protein was enriched with, or labelled near, the bait; the list need not be complete. For part of these data: A no says only that the protein was not detected with the bait.
